Where a name gives a salt, the structure may show the parent alone. ± gives the standard deviation of the averaged measurements. Some of the results follow. Small differences around the control level are noise.
The compounds below were run on hPSC-derived cortical neurons (WA09) (assay: nucleus area z-score vs screen plate; higher = larger nuclei (more mature)). Conditions: 5 µM; treatment: days 7-14 after plating, readout day 21.

SMILES | nucleus area z-score
Cc1ncc(CO)c(CO)c1O [Pyridoxine HCl] | -0.0311
Cc1ccc(S(=O)(=O)NC(=O)NN2CC3CCCC3C2)cc1 (stereo not given) [Gliclazide] | 0.976
CCCC(CCC)C(=O)O [Divalproex Sodium] | -0.661
CCOC(=O)C1=C[C@@H](OC(CC)CC)[C@H](NC(C)=O)[C@@H](N)C1 [Oseltamivir Phosphate] | 0.802
O=C(O)c1cccnc1 [Nicotinic Acid] | -0.00934
N=C(N)NC(=N)N1CCOCC1 [Moroxydine HCl] | 1.53
CCCN(CCC)CCc1cccc2c1CC(=O)N2 [Ropinirole HCl] | 0.317
CCCN[C@H]1CCc2nc(N)sc2C1 [Pramipexole] | 1.09
C[C@H]1C[C@H]2[C@@H]3CCC4=CC(=O)C=C[C@]4(C)[C@@]3(F)[C@@H](O)C[C@]2(C)[C@@]1(O)C(=O)CO [Betamethasone] | 1.49
CN(C)c1ccc(O)c2c1C[C@H]1C[C@H]3[C@H](N(C)C)C(O)=C(C(N)=O)C(=O)[C@@]3(O)C(O)=C1C2=O [Minocycline HCl] | 0.264
Cc1cc(Nc2nc(N[C@@H](C)c3ncc(F)cn3)ncc2Cl)[nH]n1 | 1.89
COc1cc(F)c(C(C)C)cc1-c1ccc(C(F)(F)F)cc1CN1C(=O)O[C@H](c2cc(C(F)(F)F)cc(C(F)(F)F)c2)[C@@H]1C [Anacetrapib (MK-0859)] | -0.854
COc1cc(CCC(C)=O)ccc1O [Vanillylacetone] | 1.34
Cc1cccc(Nc2cc(Cl)nc(SCC(=O)O)n2)c1C | 0.111
CC1(C)CC[C@]2(C(=O)O)CC[C@]3(C)C(=CC[C@@H]4[C@@]5(C)CC[C@H](O)C(C)(C)[C@@H]5CC[C@]43C)[C@@H]2C1 [Oleanolic Acid] | 0.204
CO[C@H]1C[C@@H]2CC[C@@H](C)[C@@](O)(O2)C(=O)C(=O)N2CCCC[C@H]2C(=O)O[C@H]([C@H](C)C[C@@H]2CC[C@@H](OP(C)(C)=O)[C@H](OC)C2)CC(=O)[C@H](C)/C=C(\C)[C@@H](O)[C@@H](OC)C(=O)[C@H](C)C[C@H](C)/C=C/C=C/C=C/1C [Ridaforolimus (Deforolimus, MK-8669)] | -4.82
CNC(=O)c1ccc(C)c(-n2c(C)cc(OCc3ccc(F)cc3F)c(Br)c2=O)c1 | 1.15
CC12CCC(CC1=O)C2(C)C (stereo not drawn) [(+)-Camphor] | 0.0894
OC[C@H]1OC(O)[C@H](O)[C@@H](O)[C@@H]1O (stereo not given in full) [Dextrose] | 0.153
CC(C)c1cc(-c2n[nH]c(=O)n2-c2ccc3c(ccn3C)c2)c(O)cc1O [Ganetespib (STA-9090)] | -5.13

SMILES | nucleus area z-score
NCCc1c[nH]cn1 [Histamine Phosphate] | -1.64
O=C(O)Cc1ccccc1Nc1c(Cl)cccc1Cl [Diclofenac Potassium] | 0.948
CC(O)c1cc(C(=O)N[C@@H](C)Cn2ccc(-c3ccc(C#N)c(Cl)c3)n2)n[nH]1 (stereo not given in full) | 0.716
CC(C)N(C[C@H]1O[C@@H](n2cnc3c(N)ncnc32)[C@H](O)[C@@H]1O)[C@H]1C[C@@H](CCc2nc3cc(C(C)(C)C)ccc3[nH]2)C1 | 1.05
CN(C)Cc1cccc(N=C(c2ccccc2)c2c(O)[nH]c3cc(C(=O)N(C)C)ccc23)c1 | 1.7
O=C(O)COCCN1CCN(C(c2ccccc2)c2ccc(Cl)cc2)CC1 (stereo not given) [Cetirizine DiHCl] | 0.22
Nc1nc(N)c2nc(-c3cccc(O)c3)c(-c3cccc(O)c3)nc2n1 | -0.575
Nc1nc(Cl)nc2c1ncn2[C@H]1C[C@H](O)[C@@H](CO)O1 [Cladribine] | -6.83
N#Cc1ccc(COC[C@H]2O[C@@H](n3c(NCc4ccc(Cl)c(Cl)c4)nc4c(N)ncnc43)[C@H](O)[C@@H]2O)cc1 | -0.455
CN(C)Cc1ccc(-c2nc3cccc4c3n2CCNC4=O)cc1 | 0.00852
Cc1ccc(NC(=O)c2cccc(C(C)(C)C#N)c2)cc1Nc1ccc2ncn(C)c(=O)c2c1 | 0.378
CC(C)NC[C@H](O)COc1ccc(CCOCC2CC2)cc1 [Levobetaxolol HCl] | 0.476
CC(=O)O/N=C1\C(=O)N(Cc2cc(Cl)ccc2Cl)c2ccc(Cl)cc21 | -1.07
COc1cccc(-n2c(=O)[nH]c3cc(Cl)n(-c4ccc(-c5cccc(OC)c5O)cc4)c3c2=O)c1 | 1.5
CC[C@H]1OC(=O)[C@H](C)[C@@H](O[C@H]2C[C@@](C)(OC)[C@@H](O)[C@H](C)O2)[C@H](C)[C@@H](O[C@@H]2O[C@H](C)C[C@H](N(C)C)[C@H]2O)[C@](C)(O)C[C@@H](C)C(=O)[C@H](C)[C@@H](O)[C@]1(C)O [Erythromycin] | 0.834 ± 0.51
CCN(CC)Cc1cc(Nc2ccnc3cc(Cl)ccc23)ccc1O [Amodiaquine dihydrochloride dihydrate] | -3.55
CC(=O)[C@]1(O)Cc2c(O)c3c(c(O)c2[C@@H](O[C@H]2C[C@H](N)[C@H](O)[C@H](C)O2)C1)C(=O)c1ccccc1C3=O [Idarubicin HCl] | -16.1
C=CC(=O)Nc1cccc(Nc2nc(Nc3ccc(OCCOC)cc3)ncc2F)c1 | -2.4
CC[C@H]1OC(=O)[C@H](C)[C@@H](O[C@H]2C[C@@](C)(OC)[C@@H](O)[C@H](C)O2)[C@H](C)[C@@H](O[C@@H]2O[C@H](C)C[C@H](N(C)C)[C@H]2O)[C@](C)(O)C[C@@H](C)/C(=N\OCOCCOC)[C@H](C)[C@@H](O)[C@]1(C)O [Roxithromycin] | 0.423
CCCNC(=O)NS(=O)(=O)c1ccc(Cl)cc1 [Chlorpropamide] | -0.691

Two entries from above in another layout.

| SMILES | nucleus area z-score |
| --- | --- |
| CC(O)c1cc(C(=O)N[C@@H](C)Cn2ccc(-c3ccc(C#N)c(Cl)c3)n2)n[nH]1 (stereo not given in full) | 0.716 |
| CC(C)N(C[C@H]1O[C@@H](n2cnc3c(N)ncnc32)[C@H](O)[C@@H]1O)[C@H]1C[C@@H](CCc2nc3cc(C(C)(C)C)ccc3[nH]2)C1 | 1.05 |

Source: the supplement of paper PMC11348887
